This is an account of results in US20070141665A1.

Protein sequences, listed by entry. Tags and fused reporters are not part of them. Lines headed by an entry give the natural chain unless they say otherwise; changes in a name come on top. Residues count along the entry.
UniProt P15381, residues 444-493: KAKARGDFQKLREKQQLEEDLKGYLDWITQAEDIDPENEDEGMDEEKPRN
UniProt P27884: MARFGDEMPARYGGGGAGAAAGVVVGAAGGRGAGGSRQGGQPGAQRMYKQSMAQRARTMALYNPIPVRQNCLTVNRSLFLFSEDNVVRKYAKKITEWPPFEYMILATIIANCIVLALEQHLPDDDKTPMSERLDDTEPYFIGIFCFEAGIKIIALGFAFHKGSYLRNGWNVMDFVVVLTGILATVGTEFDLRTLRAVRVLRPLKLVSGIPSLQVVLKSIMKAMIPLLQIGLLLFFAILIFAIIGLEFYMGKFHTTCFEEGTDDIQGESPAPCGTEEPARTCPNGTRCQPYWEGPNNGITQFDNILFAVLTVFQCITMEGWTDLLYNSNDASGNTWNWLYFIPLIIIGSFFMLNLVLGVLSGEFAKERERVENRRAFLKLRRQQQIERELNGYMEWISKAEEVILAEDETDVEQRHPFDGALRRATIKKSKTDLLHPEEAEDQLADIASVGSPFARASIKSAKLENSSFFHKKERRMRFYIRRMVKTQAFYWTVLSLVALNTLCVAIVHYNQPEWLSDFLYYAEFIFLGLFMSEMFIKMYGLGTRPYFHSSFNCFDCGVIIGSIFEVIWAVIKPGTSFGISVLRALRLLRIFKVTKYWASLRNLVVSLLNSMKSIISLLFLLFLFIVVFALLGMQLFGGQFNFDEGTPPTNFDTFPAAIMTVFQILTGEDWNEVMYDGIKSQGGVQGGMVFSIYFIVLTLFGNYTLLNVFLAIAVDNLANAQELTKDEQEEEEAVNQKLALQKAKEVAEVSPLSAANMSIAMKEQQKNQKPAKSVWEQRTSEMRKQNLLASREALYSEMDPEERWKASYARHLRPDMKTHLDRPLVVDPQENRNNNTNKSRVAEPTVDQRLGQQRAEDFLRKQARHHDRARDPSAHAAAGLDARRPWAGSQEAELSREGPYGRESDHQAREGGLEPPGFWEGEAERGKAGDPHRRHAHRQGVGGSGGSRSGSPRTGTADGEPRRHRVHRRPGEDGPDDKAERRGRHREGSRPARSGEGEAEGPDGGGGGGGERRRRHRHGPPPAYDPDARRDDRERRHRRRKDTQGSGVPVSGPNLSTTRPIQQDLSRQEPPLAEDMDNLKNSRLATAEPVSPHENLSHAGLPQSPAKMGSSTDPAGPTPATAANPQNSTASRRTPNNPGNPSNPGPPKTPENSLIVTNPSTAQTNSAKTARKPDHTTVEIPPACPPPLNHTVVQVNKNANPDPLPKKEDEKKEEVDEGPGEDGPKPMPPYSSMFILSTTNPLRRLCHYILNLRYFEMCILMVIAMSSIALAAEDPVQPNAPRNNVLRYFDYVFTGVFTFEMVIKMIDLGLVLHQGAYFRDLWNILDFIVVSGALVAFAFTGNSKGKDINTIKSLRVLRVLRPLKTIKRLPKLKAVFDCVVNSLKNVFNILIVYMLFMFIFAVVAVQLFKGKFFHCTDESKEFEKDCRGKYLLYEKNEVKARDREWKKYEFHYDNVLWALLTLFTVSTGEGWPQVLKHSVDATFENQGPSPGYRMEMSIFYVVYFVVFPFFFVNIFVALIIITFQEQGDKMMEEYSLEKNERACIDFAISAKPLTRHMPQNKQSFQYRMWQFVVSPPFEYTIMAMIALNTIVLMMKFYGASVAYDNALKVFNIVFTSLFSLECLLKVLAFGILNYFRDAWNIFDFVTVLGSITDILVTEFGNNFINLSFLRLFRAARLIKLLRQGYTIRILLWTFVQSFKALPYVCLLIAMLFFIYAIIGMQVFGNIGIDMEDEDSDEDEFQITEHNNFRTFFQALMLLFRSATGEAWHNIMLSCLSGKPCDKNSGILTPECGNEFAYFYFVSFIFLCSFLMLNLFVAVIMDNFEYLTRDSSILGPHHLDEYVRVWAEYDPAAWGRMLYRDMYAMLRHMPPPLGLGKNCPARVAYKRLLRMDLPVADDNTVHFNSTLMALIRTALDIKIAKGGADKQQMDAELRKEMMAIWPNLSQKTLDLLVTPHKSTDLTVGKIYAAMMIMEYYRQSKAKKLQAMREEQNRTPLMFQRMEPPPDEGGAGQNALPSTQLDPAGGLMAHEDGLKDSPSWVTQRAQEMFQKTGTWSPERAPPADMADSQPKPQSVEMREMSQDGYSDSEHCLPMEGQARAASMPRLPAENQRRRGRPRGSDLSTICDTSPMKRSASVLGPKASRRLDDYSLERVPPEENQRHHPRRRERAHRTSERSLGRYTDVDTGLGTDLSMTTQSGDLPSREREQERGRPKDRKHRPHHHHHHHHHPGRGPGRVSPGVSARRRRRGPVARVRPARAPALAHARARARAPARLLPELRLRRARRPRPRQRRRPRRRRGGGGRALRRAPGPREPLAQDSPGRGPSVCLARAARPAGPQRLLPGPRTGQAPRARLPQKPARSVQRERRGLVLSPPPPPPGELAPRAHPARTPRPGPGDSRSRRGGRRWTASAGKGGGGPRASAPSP

No constants are given. Whether binding was seen depends on the method and setting. Some entries that bind do so weakly or less than the wild type.

Test [1] concerns the target GST-AID1.2 fusion protein (UniProt P15381). Kind of test: [35S] Cavβ3 incubated with GST-AID1.2, SDS-PAGE and autoradiography.
The target is the same in test [2]. The test is described as follows: [35S] Cavβ3 incubated with GST-AID1.2, SDS-PAGE and autoradiography (legend of FIG. 2a).
The target of test [3] is GFP-Cavα2.1 (fluorescent chimera of the α1A subunit) expressed in xenopus oocytes (UniProt P27884). The test is described as follows: FRET by confocal microscopy in xenopus oocytes.

“Cavβ3 subunit (rat), translated in vitro in the presence of [35S]-methionine (from UniProt P54287 1-484)”: the binding entry in test [1] and in test [2] was “binds” throughout. In the case of “purified His-Cavβ3 recombinant protein coupled to Cy3 maleimide (from UniProt P54287 1-484)”, in test [3], the binding result is listed as “binds”.
